Results are given in words; binding and its absence hold for the method and conditions named. In cells and extracts the contact can be indirect. Some binding calls cover weakened binding; strength is not graded here.

The chains behind the UniProt entries cited, without tags or fusion partners.
UniProt O00401: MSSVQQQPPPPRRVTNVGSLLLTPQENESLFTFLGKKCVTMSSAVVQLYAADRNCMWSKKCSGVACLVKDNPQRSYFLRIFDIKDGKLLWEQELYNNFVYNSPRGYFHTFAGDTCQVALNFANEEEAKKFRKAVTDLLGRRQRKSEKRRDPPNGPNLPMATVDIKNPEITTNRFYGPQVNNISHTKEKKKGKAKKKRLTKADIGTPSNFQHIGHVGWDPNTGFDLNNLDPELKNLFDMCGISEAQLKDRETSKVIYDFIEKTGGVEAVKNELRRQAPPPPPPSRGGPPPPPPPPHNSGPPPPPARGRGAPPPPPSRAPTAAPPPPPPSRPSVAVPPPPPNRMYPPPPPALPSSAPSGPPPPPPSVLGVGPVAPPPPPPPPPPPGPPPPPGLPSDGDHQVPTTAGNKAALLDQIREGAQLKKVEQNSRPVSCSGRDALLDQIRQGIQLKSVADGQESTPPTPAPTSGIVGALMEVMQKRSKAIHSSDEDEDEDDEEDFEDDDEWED

Drawing on publication PMC3432004, this text covers binding for one substance.

For assay [1], the target named is T1, Claudin-5 (over-expressed, MDA-MB-231^CL5exp cells) (human) (UniProt O00501).
T1 sequence: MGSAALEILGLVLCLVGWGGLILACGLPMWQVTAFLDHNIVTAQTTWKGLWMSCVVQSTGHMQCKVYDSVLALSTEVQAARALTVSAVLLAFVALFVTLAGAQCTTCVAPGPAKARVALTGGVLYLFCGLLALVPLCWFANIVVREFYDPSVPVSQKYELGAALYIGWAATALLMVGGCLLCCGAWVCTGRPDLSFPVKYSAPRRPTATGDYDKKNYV
Description: co-IP; cell lysate precipitated with anti-Claudin-5 antibody (1:100, 2 h) and protein A/G agarose beads overnight; immunoblot for N-WASP and ROCK 1. (In general: In western blotting, separated proteins are transferred to a membrane and probed.)

The target of assay [2] is T2, Claudin-5 (endogenous, MDA-MB-231^pEF6 control cells) (human (endogenous in MDA-MB-231)) (UniProt O00501).
T2 sequence: T1 sequence
The description is as above.

Consider “Neuronal Wiskott-Aldrich syndrome protein (from UniProt O00401 1-505)”, for which the binding result in assay [1] and in assay [2] was “binds” throughout.
